The record followed here is the supplement of paper PMC10849652.

Sequences of proteins named here, by UniProt entry; tags and fusion partners are left off. A change or cut given only in a name is not applied to a line headed by its entry.
UniProt P23327: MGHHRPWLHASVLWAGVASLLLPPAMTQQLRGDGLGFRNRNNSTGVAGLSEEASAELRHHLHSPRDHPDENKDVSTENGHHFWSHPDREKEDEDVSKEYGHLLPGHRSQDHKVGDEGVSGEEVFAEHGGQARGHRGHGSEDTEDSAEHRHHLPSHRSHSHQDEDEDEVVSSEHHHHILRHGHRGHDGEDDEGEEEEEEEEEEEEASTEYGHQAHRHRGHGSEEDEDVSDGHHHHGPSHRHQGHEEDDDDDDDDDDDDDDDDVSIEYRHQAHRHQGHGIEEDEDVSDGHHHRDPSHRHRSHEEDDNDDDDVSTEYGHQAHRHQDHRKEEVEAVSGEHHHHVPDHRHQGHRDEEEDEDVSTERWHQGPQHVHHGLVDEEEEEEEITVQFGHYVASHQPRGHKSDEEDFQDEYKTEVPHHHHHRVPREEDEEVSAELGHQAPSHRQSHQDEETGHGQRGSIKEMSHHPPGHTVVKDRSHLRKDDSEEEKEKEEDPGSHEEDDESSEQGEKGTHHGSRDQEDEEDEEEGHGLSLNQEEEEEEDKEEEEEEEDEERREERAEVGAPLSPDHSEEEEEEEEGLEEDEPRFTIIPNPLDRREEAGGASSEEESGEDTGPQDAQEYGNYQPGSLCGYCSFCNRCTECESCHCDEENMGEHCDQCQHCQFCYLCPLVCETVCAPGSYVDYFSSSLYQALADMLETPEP
UniProt Q15751: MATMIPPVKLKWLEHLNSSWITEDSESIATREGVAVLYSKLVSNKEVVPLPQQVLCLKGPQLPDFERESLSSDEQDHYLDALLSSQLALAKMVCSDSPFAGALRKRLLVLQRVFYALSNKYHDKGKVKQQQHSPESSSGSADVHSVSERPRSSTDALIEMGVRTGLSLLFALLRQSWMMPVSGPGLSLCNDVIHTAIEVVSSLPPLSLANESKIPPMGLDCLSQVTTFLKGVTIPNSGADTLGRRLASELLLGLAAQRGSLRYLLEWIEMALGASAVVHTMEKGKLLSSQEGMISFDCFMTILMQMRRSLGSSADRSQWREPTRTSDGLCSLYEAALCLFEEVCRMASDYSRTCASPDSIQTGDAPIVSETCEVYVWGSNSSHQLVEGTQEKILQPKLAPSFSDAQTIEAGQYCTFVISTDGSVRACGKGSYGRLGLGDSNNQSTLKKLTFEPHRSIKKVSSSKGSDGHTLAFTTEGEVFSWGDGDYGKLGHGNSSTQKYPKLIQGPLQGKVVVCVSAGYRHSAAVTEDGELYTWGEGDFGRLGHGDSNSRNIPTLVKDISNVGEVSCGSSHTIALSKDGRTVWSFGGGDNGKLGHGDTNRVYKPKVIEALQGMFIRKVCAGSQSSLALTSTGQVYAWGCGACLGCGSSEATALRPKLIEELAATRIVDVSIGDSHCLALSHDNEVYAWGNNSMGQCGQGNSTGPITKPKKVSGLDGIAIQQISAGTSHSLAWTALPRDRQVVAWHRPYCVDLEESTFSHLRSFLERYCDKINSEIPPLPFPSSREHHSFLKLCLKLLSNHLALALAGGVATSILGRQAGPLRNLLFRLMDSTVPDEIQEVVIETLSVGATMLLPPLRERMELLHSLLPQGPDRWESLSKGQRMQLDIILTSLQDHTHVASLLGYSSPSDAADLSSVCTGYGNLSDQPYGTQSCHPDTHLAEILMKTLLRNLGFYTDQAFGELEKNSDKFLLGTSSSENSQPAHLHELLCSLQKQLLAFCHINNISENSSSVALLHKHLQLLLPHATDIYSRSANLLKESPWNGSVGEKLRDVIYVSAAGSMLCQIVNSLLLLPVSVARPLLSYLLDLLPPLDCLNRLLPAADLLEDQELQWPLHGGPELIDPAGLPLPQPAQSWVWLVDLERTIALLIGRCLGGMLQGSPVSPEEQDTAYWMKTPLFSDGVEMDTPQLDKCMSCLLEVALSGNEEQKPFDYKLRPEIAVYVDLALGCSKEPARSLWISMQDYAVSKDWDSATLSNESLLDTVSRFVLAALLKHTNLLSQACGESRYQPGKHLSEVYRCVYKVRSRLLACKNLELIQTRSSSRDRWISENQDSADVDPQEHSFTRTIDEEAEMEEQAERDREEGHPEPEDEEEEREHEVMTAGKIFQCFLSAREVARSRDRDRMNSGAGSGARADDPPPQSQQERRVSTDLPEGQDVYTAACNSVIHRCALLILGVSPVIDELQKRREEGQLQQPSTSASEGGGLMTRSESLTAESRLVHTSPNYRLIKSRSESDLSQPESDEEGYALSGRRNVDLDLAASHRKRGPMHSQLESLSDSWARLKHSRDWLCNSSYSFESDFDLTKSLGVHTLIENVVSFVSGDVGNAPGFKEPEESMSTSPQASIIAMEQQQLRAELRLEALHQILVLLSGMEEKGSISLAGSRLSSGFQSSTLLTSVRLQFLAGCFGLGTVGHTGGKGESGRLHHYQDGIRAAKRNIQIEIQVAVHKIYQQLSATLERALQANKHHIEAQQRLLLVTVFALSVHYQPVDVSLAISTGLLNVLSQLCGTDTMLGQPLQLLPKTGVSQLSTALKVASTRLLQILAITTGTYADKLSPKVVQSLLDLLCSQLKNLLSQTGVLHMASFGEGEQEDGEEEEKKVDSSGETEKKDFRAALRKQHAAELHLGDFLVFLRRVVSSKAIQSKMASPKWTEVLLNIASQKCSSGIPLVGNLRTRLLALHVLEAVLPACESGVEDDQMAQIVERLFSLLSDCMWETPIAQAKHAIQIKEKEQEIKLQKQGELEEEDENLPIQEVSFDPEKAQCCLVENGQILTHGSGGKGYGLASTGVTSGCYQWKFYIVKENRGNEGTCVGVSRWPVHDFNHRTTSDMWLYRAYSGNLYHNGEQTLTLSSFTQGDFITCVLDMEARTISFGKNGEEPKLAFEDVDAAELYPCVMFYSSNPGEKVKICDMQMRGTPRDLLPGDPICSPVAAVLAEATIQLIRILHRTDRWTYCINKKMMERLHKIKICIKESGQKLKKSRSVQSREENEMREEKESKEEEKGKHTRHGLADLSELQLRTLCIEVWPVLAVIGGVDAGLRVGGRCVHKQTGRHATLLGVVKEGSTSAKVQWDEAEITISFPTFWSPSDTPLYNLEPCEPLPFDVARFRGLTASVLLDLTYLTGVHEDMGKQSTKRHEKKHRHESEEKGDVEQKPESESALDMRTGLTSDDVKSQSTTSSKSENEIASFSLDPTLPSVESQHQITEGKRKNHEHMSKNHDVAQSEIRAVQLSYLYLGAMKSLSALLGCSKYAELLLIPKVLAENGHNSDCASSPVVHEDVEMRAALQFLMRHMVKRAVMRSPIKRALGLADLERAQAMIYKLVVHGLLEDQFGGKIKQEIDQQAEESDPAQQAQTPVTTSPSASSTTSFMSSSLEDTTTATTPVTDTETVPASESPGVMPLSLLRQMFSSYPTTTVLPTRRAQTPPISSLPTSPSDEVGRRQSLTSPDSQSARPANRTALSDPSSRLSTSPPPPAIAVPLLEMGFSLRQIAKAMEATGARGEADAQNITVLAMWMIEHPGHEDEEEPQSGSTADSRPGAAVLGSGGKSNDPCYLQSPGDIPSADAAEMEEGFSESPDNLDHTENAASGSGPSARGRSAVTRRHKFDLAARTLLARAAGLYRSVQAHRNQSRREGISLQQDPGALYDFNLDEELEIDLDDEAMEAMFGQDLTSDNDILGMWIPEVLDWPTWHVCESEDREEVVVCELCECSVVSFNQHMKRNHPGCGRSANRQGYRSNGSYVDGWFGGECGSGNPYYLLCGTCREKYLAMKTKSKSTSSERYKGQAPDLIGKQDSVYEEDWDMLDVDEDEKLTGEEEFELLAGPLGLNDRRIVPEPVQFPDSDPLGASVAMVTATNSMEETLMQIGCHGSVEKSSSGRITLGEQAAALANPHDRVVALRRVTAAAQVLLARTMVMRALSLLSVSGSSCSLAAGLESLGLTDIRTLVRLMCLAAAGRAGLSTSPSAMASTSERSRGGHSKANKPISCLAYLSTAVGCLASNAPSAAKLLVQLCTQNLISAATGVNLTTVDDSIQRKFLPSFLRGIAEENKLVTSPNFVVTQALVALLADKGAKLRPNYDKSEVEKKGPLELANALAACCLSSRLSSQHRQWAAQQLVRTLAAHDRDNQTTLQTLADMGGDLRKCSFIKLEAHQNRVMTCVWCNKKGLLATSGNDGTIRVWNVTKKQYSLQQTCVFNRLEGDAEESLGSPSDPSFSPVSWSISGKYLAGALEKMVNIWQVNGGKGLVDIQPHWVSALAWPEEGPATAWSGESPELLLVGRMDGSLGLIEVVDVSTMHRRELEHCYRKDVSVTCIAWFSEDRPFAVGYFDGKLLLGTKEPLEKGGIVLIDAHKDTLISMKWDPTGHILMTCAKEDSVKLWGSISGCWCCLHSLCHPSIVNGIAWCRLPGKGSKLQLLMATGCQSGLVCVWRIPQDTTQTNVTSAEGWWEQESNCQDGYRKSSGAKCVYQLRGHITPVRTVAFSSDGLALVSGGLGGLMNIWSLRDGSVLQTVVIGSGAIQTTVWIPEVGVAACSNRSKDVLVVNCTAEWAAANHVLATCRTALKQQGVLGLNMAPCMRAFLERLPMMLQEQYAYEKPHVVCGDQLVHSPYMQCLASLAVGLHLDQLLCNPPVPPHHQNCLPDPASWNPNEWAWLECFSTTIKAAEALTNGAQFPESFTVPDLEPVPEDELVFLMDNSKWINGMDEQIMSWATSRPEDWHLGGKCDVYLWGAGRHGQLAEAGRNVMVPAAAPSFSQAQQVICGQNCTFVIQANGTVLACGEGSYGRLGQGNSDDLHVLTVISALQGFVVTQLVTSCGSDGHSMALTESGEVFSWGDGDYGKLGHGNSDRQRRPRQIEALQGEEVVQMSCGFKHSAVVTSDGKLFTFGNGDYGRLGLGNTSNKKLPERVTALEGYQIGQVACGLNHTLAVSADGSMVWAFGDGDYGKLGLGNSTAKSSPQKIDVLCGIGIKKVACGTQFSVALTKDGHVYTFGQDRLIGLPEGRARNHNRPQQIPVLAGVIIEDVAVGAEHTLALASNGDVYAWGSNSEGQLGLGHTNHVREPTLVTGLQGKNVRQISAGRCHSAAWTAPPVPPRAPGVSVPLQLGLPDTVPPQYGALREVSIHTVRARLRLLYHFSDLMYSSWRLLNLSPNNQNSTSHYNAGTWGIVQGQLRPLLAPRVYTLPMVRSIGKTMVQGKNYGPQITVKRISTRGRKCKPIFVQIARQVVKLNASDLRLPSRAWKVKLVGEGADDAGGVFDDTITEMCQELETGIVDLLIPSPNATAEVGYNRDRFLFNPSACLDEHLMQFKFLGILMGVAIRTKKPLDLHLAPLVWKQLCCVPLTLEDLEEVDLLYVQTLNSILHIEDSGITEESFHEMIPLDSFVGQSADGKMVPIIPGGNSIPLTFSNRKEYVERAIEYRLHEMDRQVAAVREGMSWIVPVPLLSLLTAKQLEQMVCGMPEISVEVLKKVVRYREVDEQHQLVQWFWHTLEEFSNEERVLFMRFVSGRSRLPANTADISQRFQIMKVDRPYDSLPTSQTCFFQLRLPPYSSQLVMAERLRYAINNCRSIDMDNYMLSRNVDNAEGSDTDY
UniProt Q9BX68: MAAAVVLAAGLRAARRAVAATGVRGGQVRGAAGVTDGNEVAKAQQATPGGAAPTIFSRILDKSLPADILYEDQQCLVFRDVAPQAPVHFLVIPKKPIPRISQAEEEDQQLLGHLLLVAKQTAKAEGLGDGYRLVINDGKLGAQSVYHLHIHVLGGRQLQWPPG
UniProt Q7LGA3: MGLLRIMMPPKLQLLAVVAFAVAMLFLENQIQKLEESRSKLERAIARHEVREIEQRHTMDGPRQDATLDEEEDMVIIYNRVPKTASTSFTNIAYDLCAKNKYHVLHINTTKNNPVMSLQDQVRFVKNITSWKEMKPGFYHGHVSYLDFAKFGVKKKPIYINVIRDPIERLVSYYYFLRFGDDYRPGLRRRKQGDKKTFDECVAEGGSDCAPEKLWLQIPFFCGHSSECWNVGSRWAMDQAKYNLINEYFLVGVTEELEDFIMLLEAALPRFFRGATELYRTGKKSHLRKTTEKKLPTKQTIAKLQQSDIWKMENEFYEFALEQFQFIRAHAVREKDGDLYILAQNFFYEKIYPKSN
UniProt Q01581: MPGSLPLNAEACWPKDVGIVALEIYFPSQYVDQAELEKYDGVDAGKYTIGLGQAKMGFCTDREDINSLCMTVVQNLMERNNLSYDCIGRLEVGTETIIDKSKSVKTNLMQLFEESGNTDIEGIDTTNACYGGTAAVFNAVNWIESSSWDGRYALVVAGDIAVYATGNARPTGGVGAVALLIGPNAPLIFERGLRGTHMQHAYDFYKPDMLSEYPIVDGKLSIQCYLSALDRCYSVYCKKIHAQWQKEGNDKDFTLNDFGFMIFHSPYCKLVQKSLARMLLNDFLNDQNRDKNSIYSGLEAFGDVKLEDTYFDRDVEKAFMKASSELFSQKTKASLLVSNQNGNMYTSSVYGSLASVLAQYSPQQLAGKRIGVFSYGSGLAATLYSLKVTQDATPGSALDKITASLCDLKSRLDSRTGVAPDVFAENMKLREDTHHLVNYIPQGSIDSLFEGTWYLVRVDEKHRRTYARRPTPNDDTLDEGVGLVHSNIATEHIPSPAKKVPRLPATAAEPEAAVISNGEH

Assay in all cases: log2 fold change, soluble protein after heating vs DMSO (PISA); higher = thermal stabilisation; K562 lysate, 10 uM; active = over 0.2 and 3.5 SD of the protein, either way, in both replicates (recomputed)
Compound in one assay: CCCS(=O)(=O)Nc1ccc(F)c(C(=O)c2c[nH]c3ncc(-c4ccc(Cl)cc4)cc23)c1F [vemurafenib]
Summed up: (§1)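 Dounce homogenisation of K562 pellets in PBS pH 7.4 with 1 mM MgCl2 produced a crude extract, used at 1 mg/mL protein. Exposure to 10 μM compound lasted 30 min, and aliquots were then heated for 3 min across 48°C-58°C, pooled and brought to 0.5% NP-40 at 4°C. The supernatant after 21,000xg for 90 min was quantified by TMTpro 16plex LC-MS/MS with channel sums equalised. Duplicate values are given as log-two fold change in thermal stability relative to solvent controls.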

Compound in assay [1]: CCCS(=O)(=O)Nc1ccc(F)c(C(=O)c2c[nH]c3ncc(Cl)cc23)c1F
In a few lines: as §1

Compound in the next assay: CCN(CCCOc1ccc2c(Nc3cc(CC(=O)Nc4cccc(F)c4)[nH]n3)ncnc2c1)CCOP(=O)(O)O [barasertib]
In a few lines: as §1

Compound in assay [2]: CC[C@@H]1C(=O)N(C)c2cnc(Nc3ccc(C(=O)NC4CCN(C)CC4)cc3OC)nc2N1C1CCCC1
Summed up:
as §1

Compound in a further assay: CC[C@@H]1C(=O)N(C)c2cnc(Nc3ccc(C(=O)N[C@H]4CC[C@H](N5CCN(CC6CC6)CC5)CC4)cc3OC)nc2N1C(C)C [volasertib]
Summed up: as §1

Compound in assay [3]: CCn1c(C(=O)N(C2CC2)C2CC2)cc2c3c(ncn3C)c(Nc3cc(C)n(C)n3)nc21
Summed up: as §1

Compound in assay [4]: CCn1cc(-c2ccnc3[nH]c(-c4cccc(CN(C)C)c4)cc23)c(-c2ccc(NC(=O)N(C)C)cc2)n1
Summed up: as §1

Compound in assay [5]: CN1CCC(CNc2ccc3ncc(-c4cccc(OC(F)(F)F)c4)n3n2)CC1
In a few lines: as §1

Compound in a further assay: CN1CCN(CCOc2cc(OC3CCOCC3)c3c(Nc4c(Cl)ccc5c4OCO5)ncnc3c2)CC1 [saracatinib]
Summed up:
as §1

Compound in a further assay: CN1CCN(c2nc(C3=C(c4c[nH]c5ccccc45)C(=O)NC3=O)c3ccccc3n2)CC1 [sotrastaurin]
Summed up: as §1

The other results are listed elsewhere or left out.

For the target HEPH isoform 3 (UniProt Q9BQS7), the log2 fold change is inactive: 0.031 with vemurafenib; inactive: 0.025 in assay [1]; inactive: 0.025 with barasertib; inactive: 0.03 in assay [2]; inactive: 0.013 with volasertib; inactive: -0.028 in [3]. In addition, the log2 fold change in [4] was inactive: -0.007; in assay [5], inactive: 0.023; with saracatinib it was inactive: 0; in the assay with sotrastaurin, inactive: 0.023.
Take HIF1AN (UniProt Q9NWT6): the log2 fold change with vemurafenib is inactive: 0.015; in [1] it was inactive: 0.059; with barasertib it was inactive: 0.152; in [2] it was inactive: -0.048; with volasertib, inactive: 0.015; in assay [3], inactive: 0.053. Further, the log2 fold change in assay [4] is inactive: -0.053; in assay [5], inactive: 0.104; with saracatinib, inactive: 0.029; in the assay with sotrastaurin, inactive: 0.062.
Turning to HS1BP3 (UniProt Q53T59), the log2 fold change with vemurafenib is inactive: -0.003; in [1] it was inactive: -0.012; with barasertib, inactive: 0.056; in assay [2], inactive: 0.029; with volasertib, inactive: -0.002; in assay [3], inactive: 0.014. In addition, the log2 fold change in assay [4] is inactive: -0.238; in [5], inactive: 0.092; with saracatinib it was inactive: 0.082; with sotrastaurin, inactive: 0.013.
Take HMGN5 (UniProt P82970): the log2 fold change is inactive: -0.007 in the assay with vemurafenib; inactive: -0.011 in assay [1]; inactive: -0.044 with barasertib; inactive: 0.016 in [2]; inactive: 0.013 with volasertib; inactive: -0.044 in assay [3]. The log2 fold change was active: 0.3 in assay [4], inactive: -0.164 in [5], inactive: -0.027 in the assay with saracatinib and inactive: -0.029 in the assay with sotrastaurin.
Regarding HRC (UniProt P23327), the log2 fold change was inactive: 0.049 in the assay with vemurafenib; inactive: 0.011 in [1]; inactive: -0.02 with barasertib; inactive: 0.063 in assay [2]; inactive: 0.019 in the assay with volasertib; inactive: 0.025 in assay [3]. In addition, the log2 fold change in assay [4] was inactive: -0.04; in assay [5] it was inactive: -0.039; in the assay with saracatinib, inactive: -0.014; with sotrastaurin, inactive: 0.003.
HNRNPK isoform 3 (UniProt P61978): the log2 fold change in the assay with vemurafenib was inactive: 0; in assay [1] it was inactive: 0.007; in the assay with barasertib it was inactive: 0.024; in assay [2], inactive: 0.053; in the assay with volasertib, inactive: 0.019; in [3] it was inactive: -0.052. For the same target, the log2 fold change in assay [4] is inactive: -0.014; in [5], inactive: 0.006; with saracatinib, inactive: 0.04; with sotrastaurin it was inactive: -0.007.
As for HMBOX1 isoform 5 (UniProt Q6NT76), the log2 fold change with vemurafenib is inactive: 0.028; in [1], inactive: -0.086; in the assay with barasertib, inactive: -0.001; in assay [2] it was inactive: 0.122; with volasertib it was inactive: -0.059; in assay [3], inactive: -0.038. Further, the log2 fold change in assay [4] was inactive: -0.043; in assay [5], inactive: -0.071; with saracatinib, inactive: -0.003; in the assay with sotrastaurin, inactive: -0.013.
As to HERC1 (UniProt Q15751), the log2 fold change in the assay with vemurafenib is inactive: 0.013; in [1] it was inactive: 0.033; with barasertib, inactive: 0.028; in assay [2], inactive: 0.007; with volasertib it was inactive: -0.038; in [3], inactive: 0.014. For the same target, the log2 fold change in [4] was inactive: 0.016; in [5] it was inactive: -0.003; with saracatinib, inactive: 0.009; with sotrastaurin, inactive: 0.017.
For the target HSDL2 (UniProt Q6YN16), the log2 fold change in the assay with vemurafenib is inactive: 0.041; in assay [1], inactive: 0.009; with barasertib it was inactive: 0.017; in assay [2], inactive: -0.007; with volasertib it was inactive: -0.043; in assay [3], inactive: -0.06. Also, the log2 fold change is inactive: -0.12 in assay [4], inactive: 0.074 in assay [5], inactive: -0.02 with saracatinib and inactive: -0.019 in the assay with sotrastaurin.
Take HINT2 (UniProt Q9BX68): the log2 fold change with vemurafenib is inactive: -0.078; in [1], inactive: -0.055; in the assay with barasertib, inactive: 0.143; in assay [2], inactive: -0.066; with volasertib, inactive: 0.016; in assay [3], inactive: 0.128. Also, the log2 fold change in assay [4] is inactive: -0.055; in assay [5], inactive: -0.1; with saracatinib, inactive: 0.03; with sotrastaurin, inactive: -0.028.
With HNRNPAB isoform 3 (UniProt Q99729), the log2 fold change with vemurafenib is inactive: 0.018; in assay [1] it was inactive: -0.001; in the assay with barasertib, inactive: -0.003; in assay [2] it was inactive: 0.033; in the assay with volasertib it was inactive: 0.019; in assay [3], inactive: 0.011. The log2 fold change is inactive: -0.096 in assay [4], inactive: -0.004 in assay [5], inactive: 0.027 with saracatinib and inactive: -0.013 in the assay with sotrastaurin.
Take HS2ST1 (UniProt Q7LGA3): the log2 fold change is inactive: -0.082 with vemurafenib; inactive: 0.009 in [1]; inactive: -0.057 with barasertib; inactive: -0.02 in assay [2]; inactive: -0.015 with volasertib; inactive: 0.003 in assay [3]. Further, the log2 fold change in assay [4] is inactive: -0.01; in [5] it was inactive: -0.023; in the assay with saracatinib, inactive: -0.022; in the assay with sotrastaurin, inactive: 0.058.
In the case of HMGCS1 (UniProt Q01581), the log2 fold change was inactive: 0.008 with vemurafenib; inactive: -0.009 in [1]; inactive: -0.038 with barasertib; inactive: -0.003 in assay [2]; inactive: -0.017 with volasertib; inactive: 0.014 in [3]. The log2 fold change in assay [4] was inactive: -0.005; in [5], inactive: 0.009; in the assay with saracatinib, inactive: 0.004; with sotrastaurin, inactive: -0.014.
In the case of HNRNPUL2 (UniProt Q1KMD3), the log2 fold change is inactive: 0.024 with vemurafenib; inactive: 0.017 in [1]; inactive: 0.038 with barasertib; inactive: 0.005 in [2]; inactive: -0.009 with volasertib; inactive: -0.012 in assay [3]. In addition, the log2 fold change in [4] was inactive: -0.029; in assay [5], inactive: 0.008; with saracatinib, inactive: 0.029; with sotrastaurin, inactive: 0.04.
Turning to HIRIP3 (UniProt Q9BW71), the log2 fold change was inactive: 0.007 in the assay with vemurafenib; inactive: 0.027 in assay [1]; inactive: -0.073 with barasertib; inactive: 0.062 in assay [2]; inactive: 0.01 with volasertib; inactive: -0.001 in assay [3]. Further, the log2 fold change is inactive: -0.007 in assay [4], inactive: -0.028 in assay [5], inactive: 0.019 with saracatinib and inactive: -0.02 with sotrastaurin.
